Columns and labels:
Pimephales promelas = assay: 96 h LC50 (-log10 mol/L); higher = more toxic
Daphnia magna = assay: 48 h LC50 (-log10 mol/L); higher = more toxic

O=C(c1ccccc1)c1ccccc1
96 h LC50 (-log10 mol/L) (Pimephales promelas): 4.09

O=C(O)C1=C[C@@H](O)[C@@H](O)[C@H](O)C1
48 h LC50 (-log10 mol/L) (Daphnia magna): 3.18

From EPA's aquatic toxicity sets
